Here are results for seven molecules from paper PMC7337926.

The target of assay [1] is T1, HEN2 fused to the Gal4 DNA binding domain (Arabidopsis thaliana) (UniProt Q9ZVW2).
T1 sequence: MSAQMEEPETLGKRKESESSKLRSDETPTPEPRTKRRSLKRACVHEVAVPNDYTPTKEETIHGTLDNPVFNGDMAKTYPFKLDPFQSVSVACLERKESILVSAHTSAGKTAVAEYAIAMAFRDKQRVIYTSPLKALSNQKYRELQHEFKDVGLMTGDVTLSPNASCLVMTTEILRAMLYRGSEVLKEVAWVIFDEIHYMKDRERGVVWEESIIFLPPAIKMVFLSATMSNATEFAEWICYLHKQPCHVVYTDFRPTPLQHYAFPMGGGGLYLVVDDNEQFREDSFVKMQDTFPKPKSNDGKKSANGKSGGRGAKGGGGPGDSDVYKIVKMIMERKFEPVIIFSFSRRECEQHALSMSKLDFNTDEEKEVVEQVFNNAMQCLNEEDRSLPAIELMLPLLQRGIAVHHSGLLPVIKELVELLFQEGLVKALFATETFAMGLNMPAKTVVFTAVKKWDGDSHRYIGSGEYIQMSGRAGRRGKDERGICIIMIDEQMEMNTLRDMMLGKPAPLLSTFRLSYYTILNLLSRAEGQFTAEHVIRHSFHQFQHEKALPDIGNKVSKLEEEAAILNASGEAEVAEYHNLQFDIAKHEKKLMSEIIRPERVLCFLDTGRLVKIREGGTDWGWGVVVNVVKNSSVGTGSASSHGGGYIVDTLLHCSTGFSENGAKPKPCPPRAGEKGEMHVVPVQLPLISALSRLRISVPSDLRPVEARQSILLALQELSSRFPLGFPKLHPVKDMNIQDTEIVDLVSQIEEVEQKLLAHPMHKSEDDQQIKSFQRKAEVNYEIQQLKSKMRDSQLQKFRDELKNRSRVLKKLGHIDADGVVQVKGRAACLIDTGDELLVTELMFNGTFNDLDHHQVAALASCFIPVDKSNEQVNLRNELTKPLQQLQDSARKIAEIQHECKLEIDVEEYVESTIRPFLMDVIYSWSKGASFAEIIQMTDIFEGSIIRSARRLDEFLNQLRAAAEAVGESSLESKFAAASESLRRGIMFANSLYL
In words: two-hybrid; Matchmaker Gal4 system, S. cerevisiae Y2HGold, 28°C; growth on medium lacking L, T, H, A and on medium with aureobasidin and X-αGal.

Assay [2] has as its target T2, SE fused to the Gal4 DNA binding domain (Arabidopsis thaliana) (UniProt Q9ZVD0).
T2 sequence: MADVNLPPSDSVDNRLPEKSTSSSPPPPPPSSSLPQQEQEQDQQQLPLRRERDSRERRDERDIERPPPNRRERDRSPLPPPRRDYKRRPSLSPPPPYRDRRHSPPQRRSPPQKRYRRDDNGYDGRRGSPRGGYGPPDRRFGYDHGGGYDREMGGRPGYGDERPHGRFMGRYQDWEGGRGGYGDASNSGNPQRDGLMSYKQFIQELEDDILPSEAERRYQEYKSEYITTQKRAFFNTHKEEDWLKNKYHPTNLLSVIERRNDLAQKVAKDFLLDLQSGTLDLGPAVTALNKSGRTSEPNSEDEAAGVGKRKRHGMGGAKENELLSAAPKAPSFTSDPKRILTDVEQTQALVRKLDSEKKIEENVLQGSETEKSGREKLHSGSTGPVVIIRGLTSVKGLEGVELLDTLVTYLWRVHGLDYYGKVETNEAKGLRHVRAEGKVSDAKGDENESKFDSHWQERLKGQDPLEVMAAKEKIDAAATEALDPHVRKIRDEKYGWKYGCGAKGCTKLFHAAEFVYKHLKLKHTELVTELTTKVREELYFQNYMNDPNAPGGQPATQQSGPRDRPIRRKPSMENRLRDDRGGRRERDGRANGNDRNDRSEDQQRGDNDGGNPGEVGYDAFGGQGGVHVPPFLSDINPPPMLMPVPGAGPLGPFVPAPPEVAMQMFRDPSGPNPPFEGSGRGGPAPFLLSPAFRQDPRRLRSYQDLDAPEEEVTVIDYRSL
The assay is described as above.

Assay [3] deals with T3, HEN2-GFP (Arabidopsis thaliana) (UniProt Q9ZVW2).
T3 sequence: T1 sequence
In words: FRET or BRET; FRET-FLIM in Arabidopsis protoplasts; GFP fusion as donor, RFP fusion as acceptor; fluorescence lifetime of the donor against the PRP39A-RFP control.

Assay [4] concerns the target T4, SE-GFP (Arabidopsis thaliana) (UniProt Q9ZVD0).
T4 sequence: T2 sequence
Described as above.

Assay [5] has as its target ZCCHC8A-cCFP (Arabidopsis thaliana). In words: split reporter; BiFC of nVEN-HEN2 and ZCCHC8A-cCFP in Arabidopsis protoplasts.

No constants are given. Whether binding was seen depends on the method and setting. Binding can be weak; no strength is given. For some of these results: Tags and fused reporters may be left off the sequences shown. For some of these results: In cells and extracts the contact can be indirect.

“ZCCHC8B fused to the Gal4 activation domain (Arabidopsis thaliana)”: the binding entry in assay [1] and in assay [2] was “binds” each time.
As to “ZCCHC8A fused to the Gal4 activation domain (Arabidopsis thaliana)”, the binding entry in assay [1] and in assay [2] was “binds” throughout.
With “RBM7 fused to the Gal4 activation domain (Arabidopsis thaliana)”, the binding result in assay [1] was “no binding”; in assay [2], “binds”.
On to ZCCHC8A-RFP (Arabidopsis thaliana), for which the binding entry in assay [3] and in assay [4] was “binds” in each case.
Regarding ZCCHC8B-RFP (Arabidopsis thaliana), the binding entry in assay [3] and in assay [4] was “binds” in each case.
With RBM7-RFP (Arabidopsis thaliana), the results for the binding entry in assay [3] and in assay [4] were “no binding” and “binds”, respectively.

B1: nVEN-HEN2 (protein, UniProt Q9ZVW2 1-995)
chain: T1 sequence
As to B1, in assay [5], the binding entry is given as “binds”.
